{"sequences": {"note": "Amino acid sequences for entries named in this document (tags omitted). A change or cut given only in a name is not applied to a line headed by its entry.", "UniProt Q8TCS8": "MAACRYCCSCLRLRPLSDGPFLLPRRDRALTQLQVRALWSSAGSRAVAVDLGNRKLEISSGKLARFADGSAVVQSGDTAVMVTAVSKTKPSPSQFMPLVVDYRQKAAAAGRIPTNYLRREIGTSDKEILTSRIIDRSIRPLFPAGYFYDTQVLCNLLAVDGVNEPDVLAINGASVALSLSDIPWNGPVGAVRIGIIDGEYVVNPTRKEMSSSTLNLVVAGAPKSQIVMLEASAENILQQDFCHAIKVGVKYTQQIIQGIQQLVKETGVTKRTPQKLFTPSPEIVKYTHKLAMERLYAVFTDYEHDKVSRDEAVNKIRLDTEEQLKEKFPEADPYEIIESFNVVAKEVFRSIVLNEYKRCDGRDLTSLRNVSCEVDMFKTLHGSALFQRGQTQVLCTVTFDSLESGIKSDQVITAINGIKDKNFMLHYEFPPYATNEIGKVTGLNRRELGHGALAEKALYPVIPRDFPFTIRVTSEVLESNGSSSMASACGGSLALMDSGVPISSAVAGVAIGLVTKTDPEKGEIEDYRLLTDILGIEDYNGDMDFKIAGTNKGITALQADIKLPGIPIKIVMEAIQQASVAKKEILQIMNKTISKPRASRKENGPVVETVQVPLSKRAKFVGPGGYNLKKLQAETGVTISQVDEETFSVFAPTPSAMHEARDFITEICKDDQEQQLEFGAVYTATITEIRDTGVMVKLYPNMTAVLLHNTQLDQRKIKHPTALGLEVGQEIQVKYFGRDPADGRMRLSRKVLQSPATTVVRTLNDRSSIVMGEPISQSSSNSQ", "UniProt P14618, whole entry, looked up": "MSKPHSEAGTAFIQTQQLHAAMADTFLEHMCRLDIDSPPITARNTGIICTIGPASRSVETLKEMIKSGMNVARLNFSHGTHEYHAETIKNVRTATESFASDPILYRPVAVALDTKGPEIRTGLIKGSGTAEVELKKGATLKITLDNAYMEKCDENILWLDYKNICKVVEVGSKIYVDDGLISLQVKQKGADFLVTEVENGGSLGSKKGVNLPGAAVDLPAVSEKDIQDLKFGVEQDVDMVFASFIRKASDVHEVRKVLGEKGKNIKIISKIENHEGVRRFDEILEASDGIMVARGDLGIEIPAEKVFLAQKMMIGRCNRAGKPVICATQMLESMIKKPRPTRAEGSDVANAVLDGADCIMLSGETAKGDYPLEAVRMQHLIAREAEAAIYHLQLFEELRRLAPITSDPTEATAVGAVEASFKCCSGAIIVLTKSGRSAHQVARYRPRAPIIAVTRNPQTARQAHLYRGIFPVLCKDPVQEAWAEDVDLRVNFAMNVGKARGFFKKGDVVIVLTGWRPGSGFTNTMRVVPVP", "UniProt Q15149": "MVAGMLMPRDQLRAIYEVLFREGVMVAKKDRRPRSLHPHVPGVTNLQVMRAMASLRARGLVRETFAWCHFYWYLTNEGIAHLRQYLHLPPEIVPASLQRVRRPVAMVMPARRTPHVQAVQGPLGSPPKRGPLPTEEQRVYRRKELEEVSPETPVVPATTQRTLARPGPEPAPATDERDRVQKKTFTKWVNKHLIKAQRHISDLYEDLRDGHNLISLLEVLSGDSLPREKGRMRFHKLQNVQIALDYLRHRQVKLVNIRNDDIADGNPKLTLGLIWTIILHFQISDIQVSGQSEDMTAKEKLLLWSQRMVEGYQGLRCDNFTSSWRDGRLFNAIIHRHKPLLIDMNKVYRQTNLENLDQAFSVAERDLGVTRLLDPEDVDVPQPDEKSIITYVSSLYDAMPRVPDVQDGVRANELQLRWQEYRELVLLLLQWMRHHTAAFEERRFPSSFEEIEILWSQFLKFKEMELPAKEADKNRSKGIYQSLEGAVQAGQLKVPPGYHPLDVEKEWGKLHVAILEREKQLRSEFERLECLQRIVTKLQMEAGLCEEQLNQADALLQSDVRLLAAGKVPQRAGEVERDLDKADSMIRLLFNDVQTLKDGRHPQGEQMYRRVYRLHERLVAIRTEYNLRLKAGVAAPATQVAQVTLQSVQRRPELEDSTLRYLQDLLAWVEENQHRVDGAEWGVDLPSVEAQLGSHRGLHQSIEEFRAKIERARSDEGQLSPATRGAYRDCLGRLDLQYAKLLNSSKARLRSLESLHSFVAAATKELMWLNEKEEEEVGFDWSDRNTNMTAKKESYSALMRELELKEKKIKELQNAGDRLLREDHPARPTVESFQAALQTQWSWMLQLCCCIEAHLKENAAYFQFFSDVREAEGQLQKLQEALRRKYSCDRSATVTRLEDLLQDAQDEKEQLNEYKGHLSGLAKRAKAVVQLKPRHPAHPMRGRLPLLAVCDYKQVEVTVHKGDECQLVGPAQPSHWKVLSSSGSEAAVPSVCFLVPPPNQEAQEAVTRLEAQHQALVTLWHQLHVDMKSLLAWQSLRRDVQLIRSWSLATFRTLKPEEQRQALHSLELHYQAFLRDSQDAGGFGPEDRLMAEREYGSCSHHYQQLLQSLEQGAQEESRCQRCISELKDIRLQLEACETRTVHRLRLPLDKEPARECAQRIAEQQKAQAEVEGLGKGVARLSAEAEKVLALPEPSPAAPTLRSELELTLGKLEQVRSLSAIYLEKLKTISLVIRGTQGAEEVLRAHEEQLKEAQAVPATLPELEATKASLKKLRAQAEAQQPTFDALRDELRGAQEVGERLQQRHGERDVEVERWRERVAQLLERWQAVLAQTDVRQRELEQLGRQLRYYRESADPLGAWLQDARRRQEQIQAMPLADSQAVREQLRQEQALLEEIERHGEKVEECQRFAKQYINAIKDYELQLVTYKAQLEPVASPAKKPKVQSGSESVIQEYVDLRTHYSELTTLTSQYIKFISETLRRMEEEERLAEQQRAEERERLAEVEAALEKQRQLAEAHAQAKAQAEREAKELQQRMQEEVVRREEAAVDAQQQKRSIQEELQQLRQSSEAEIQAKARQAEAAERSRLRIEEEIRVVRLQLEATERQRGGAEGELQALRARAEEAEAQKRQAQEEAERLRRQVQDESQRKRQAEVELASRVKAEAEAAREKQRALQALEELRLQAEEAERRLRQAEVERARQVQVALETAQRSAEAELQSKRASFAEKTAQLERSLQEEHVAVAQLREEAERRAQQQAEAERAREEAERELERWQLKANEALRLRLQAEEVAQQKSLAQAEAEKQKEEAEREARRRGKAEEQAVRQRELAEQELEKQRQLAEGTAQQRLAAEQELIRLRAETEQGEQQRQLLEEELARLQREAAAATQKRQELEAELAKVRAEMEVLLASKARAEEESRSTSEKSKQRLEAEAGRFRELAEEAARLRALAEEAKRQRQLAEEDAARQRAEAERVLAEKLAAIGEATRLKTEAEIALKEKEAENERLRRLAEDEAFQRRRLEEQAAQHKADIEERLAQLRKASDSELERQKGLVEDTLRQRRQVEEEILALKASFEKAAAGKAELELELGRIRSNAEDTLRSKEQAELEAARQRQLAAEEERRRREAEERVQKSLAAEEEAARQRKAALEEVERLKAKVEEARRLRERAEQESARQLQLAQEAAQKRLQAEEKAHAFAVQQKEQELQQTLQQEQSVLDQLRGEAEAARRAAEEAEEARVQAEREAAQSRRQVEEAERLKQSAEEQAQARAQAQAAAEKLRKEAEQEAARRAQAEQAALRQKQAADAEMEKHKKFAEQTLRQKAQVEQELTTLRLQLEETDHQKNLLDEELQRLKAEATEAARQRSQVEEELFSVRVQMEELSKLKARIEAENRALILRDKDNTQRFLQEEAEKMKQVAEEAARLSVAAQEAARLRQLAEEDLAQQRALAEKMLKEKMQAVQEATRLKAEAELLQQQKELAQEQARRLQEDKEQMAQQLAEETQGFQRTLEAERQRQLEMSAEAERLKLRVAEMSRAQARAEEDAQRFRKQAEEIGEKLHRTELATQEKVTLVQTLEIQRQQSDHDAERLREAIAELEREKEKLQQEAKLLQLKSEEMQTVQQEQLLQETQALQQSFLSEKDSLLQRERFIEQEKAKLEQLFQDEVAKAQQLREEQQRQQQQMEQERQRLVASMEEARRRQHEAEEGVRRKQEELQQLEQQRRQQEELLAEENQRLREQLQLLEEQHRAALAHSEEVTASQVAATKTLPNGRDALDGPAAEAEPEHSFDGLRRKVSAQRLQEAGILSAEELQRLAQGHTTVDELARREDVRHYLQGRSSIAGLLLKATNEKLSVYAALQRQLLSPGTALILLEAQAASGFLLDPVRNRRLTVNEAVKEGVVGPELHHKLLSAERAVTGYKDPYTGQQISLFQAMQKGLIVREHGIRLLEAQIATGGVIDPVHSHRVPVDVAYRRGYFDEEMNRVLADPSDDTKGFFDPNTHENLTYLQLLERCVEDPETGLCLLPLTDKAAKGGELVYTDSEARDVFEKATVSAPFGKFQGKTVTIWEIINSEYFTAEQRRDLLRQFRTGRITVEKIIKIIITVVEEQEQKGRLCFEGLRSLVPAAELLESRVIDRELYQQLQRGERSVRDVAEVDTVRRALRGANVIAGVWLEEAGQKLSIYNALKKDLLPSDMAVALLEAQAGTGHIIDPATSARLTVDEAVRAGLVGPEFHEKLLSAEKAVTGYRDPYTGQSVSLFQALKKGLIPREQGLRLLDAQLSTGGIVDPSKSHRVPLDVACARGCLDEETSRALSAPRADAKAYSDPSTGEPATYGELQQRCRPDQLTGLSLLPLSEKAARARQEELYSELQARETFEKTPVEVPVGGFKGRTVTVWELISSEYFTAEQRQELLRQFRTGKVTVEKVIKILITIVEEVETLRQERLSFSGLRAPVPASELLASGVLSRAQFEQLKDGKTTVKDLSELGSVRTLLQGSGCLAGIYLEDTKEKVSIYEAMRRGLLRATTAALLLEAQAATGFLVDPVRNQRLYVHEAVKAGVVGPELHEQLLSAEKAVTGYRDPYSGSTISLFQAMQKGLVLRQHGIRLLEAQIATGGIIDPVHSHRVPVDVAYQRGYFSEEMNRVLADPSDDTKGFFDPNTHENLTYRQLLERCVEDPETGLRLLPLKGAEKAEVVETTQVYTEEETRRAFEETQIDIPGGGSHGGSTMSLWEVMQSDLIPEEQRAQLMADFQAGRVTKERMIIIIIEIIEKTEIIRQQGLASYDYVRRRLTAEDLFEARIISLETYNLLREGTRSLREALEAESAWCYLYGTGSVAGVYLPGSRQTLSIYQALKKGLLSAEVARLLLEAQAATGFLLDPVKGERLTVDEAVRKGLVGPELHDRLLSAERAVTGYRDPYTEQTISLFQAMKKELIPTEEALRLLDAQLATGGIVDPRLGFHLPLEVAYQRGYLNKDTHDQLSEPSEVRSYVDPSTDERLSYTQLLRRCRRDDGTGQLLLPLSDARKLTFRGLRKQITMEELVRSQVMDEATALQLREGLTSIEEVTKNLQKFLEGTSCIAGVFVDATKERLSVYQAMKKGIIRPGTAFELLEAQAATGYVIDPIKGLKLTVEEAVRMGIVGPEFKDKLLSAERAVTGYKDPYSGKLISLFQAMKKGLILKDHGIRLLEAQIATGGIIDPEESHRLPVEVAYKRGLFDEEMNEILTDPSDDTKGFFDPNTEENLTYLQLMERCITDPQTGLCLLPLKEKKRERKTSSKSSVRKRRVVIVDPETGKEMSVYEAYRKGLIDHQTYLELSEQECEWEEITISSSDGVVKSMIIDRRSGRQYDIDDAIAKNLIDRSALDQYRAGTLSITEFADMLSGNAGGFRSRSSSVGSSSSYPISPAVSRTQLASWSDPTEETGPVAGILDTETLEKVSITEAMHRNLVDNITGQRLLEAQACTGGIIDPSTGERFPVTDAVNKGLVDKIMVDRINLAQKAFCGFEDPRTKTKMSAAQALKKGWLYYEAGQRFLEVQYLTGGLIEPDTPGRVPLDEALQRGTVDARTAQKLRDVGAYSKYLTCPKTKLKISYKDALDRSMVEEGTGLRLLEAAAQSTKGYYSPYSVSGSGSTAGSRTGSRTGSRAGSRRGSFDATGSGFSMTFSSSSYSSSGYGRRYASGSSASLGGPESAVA"}, "source": "the supplement of paper PMC12067093", "about": "“Discovery and optimisation of a covalent ligand for TRIM25 and its application to targeted protein ubiquitination” (Chemical Science, 2025)", "compound": "Cc1cc(ccc1-c1ccccc1)C(=O)N1CCCN(CC1)C(=O)CCl [compound 10]", "experiment": "probe-labelled cysteine peptide fold change vs DMSO (competition) (log2 fold change); higher = less target engagement (more negative = stronger competition)", "conditions": "THP-1, incubation time: 4 h", "note": "The other results are listed elsewhere or left out.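 Further: competitive profiling in live THP-1 cells: cysteine peptides tagged with an iodoacetamide desthiobiotin (IA-DTB) probe, intensity after compound treatment relative to DMSO-treated cells.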"}
{"target": "PNPT1_Q8TCS8_668_DFITEICK (UniProt Q8TCS8)", "values": [{"measurement": "probe-labelled cysteine peptide fold change", "setting": "10 µM", "result": 0.0622}, {"measurement": "probe-labelled cysteine peptide fold change", "setting": "50 µM", "result": -0.0875}]}
{"target": "PIP4K2A_P48426_343_CHENSPR (UniProt P48426)", "values": [{"measurement": "probe-labelled cysteine peptide fold change", "setting": "10 µM", "result": -0.141}, {"measurement": "probe-labelled cysteine peptide fold change", "setting": "50 µM", "result": -0.00428}]}
{"target": "PKM_P14618_474_GIFPVLCKDPVQEAWAEDVDLR (UniProt P14618)", "values": [{"measurement": "probe-labelled cysteine peptide fold change", "setting": "10 µM", "result": -0.0504}, {"measurement": "probe-labelled cysteine peptide fold change", "setting": "50 µM", "result": -0.646}]}
{"target": "PLEK_P08567_59_GSTLTSPCQDFGK (UniProt P08567)", "values": [{"measurement": "probe-labelled cysteine peptide fold change", "setting": "10 µM", "result": -0.108}, {"measurement": "probe-labelled cysteine peptide fold change", "setting": "50 µM", "result": 0.119}]}
{"target": "PLCB3_Q01970_358_QALLWGCR (UniProt Q01970)", "values": [{"measurement": "probe-labelled cysteine peptide fold change", "setting": "10 µM", "result": -0.0263}, {"measurement": "probe-labelled cysteine peptide fold change", "setting": "50 µM", "result": -0.23}]}
{"target": "PNKP_Q96T60_308_DFSCADR (UniProt Q96T60)", "values": [{"measurement": "probe-labelled cysteine peptide fold change", "setting": "10 µM", "result": -0.268}, {"measurement": "probe-labelled cysteine peptide fold change", "setting": "50 µM", "result": -0.0394}]}
{"target": "PLEC_Q15149_1136_LQLEACETR (UniProt Q15149)", "values": [{"measurement": "probe-labelled cysteine peptide fold change", "setting": "10 µM", "result": -0.0929}, {"measurement": "probe-labelled cysteine peptide fold change", "setting": "50 µM", "result": -0.0925}]}
{"target": "PNPT1_Q8TCS8_359_CDGRDLTSLR (UniProt Q8TCS8)", "values": [{"measurement": "probe-labelled cysteine peptide fold change", "setting": "10 µM", "result": -0.161}, {"measurement": "probe-labelled cysteine peptide fold change", "setting": "50 µM", "result": -0.394}]}
{"target": "PML_P29590_189_KTNNIFCSNPNHR (UniProt P29590)", "values": [{"measurement": "probe-labelled cysteine peptide fold change", "setting": "10 µM", "result": 0.0485}, {"measurement": "probe-labelled cysteine peptide fold change", "setting": "50 µM", "result": -0.385}]}
{"target": "PLEC_Q15149_3667_CVEDPETGLR (UniProt Q15149)", "values": [{"measurement": "probe-labelled cysteine peptide fold change", "setting": "10 µM", "result": 0.0369}, {"measurement": "probe-labelled cysteine peptide fold change", "setting": "50 µM", "result": 0.143}]}
{"target": "PLAUR_Q03405_46_VEECALGQDLCR (UniProt Q03405)", "values": [{"measurement": "probe-labelled cysteine peptide fold change", "setting": "10 µM", "result": -0.361}, {"measurement": "probe-labelled cysteine peptide fold change", "setting": "50 µM", "result": -0.36}]}
{"target": "PLCL2_Q9UPR0_1095_QIHFAAVSCGLNKPGTENADVQKPR (UniProt Q9UPR0)", "values": [{"measurement": "probe-labelled cysteine peptide fold change", "setting": "10 µM", "result": -0.0777}, {"measurement": "probe-labelled cysteine peptide fold change", "setting": "50 µM", "result": -0.356}]}
{"target": "PLEC_Q15149_3295_SHRVPLDVACAR (UniProt Q15149)", "values": [{"measurement": "probe-labelled cysteine peptide fold change", "setting": "10 µM", "result": -0.167}, {"measurement": "probe-labelled cysteine peptide fold change", "setting": "50 µM", "result": -0.623}]}
{"target": "PM20D2_Q8IYS1_14_MRPGGERPVEGGACNGR (UniProt Q8IYS1)", "values": [{"measurement": "probe-labelled cysteine peptide fold change", "setting": "10 µM", "result": -0.16}, {"measurement": "probe-labelled cysteine peptide fold change", "setting": "50 µM", "result": -0.608}]}
